Values from PubChem BioAssay AID1224826 (NIAID, 2016)

Aim: 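Genes that change LPS-induced Tnf promoter activity in mouse macrophages when knocked down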 (primary screen)
Cell system: RAW264.7 G9 macrophages from mouse bearing reporters for p65 (GFP) and the Tnf promoter (mCherry)
Reagent: siRNA pool against mouse genes, 100 nM
Duration: 16 h of LPS stimulation, after 2 days of siRNA transfection
Conditions: bacterial lipopolysaccharide (Salmonella minnesota R595), 10 ng/ml
Detection: 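Nuclear mCherry signal of the Tnf promoter reporter measured by imaging after background removal, scaled to each plate median and turned into robust z-scores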
Scale: Tnf reporter robust z-score: higher = stronger Tnf promoter reporter signal after LPS; Tnf reporter intensity: higher = stronger Tnf promoter reporter signal
Active means: 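a well counts as active at a score of -1.3 or below (Tlr4 knock-down control median) or above 3 (raised signal); controls and wells holding fewer than 50 cells are excluded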
Calls: active = Tnf reporter clearly lowered or raised; inactive = no clear change in Tnf reporter
The whole screen tested about 17,000 reagents; this is a part drawn at random. About 1,110 of them (6.6%) count as active. 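Active means lowered or raised reporter signal; replicate intensities are raw and not normalised per plate.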 A number with no mark means an inactive call. Not all columns of the deposit are shown. No sequences are given here.

| gene | Tnf reporter robust z-score | fewer than 50 cells in well | Tnf reporter intensity, replicate 1 |
| --- | --- | --- | --- |
| Fnbp1 (formin binding protein 1) | 1.76 | enough cells in well | 307 |
| Gm5084 (predicted gene 5084) | -0.84 | enough cells in well | 129 |
| Nat3 (N-acetyltransferase 3) | 1 | enough cells in well | 239 |
| Oog4 (oogenesin 4) | – | fewer than 50 cells per well; well left out of calls | 212 |
| Nr4a2 (nuclear receptor subfamily 4, group A, member 2) | 0.24 | enough cells in well | 310 |
| Podxl2 (podocalyxin-like 2) | -0.66 | enough cells in well | 160 |
| Rpl23a (ribosomal protein L23A) | – | fewer than 50 cells per well; well left out of calls | 70.8 |
| Tcl1b2 (T cell leukemia/lymphoma 1B, 2) | – | fewer than 50 cells per well; well left out of calls | 0 |
| Fndc7 (fibronectin type III domain containing 7) | 1.46 | enough cells in well | 257 |
| Cldn3 (claudin 3) | 0.64 | enough cells in well | 257 |
| 1700028K03Rik (RIKEN cDNA 1700028K03 gene) | 0.96 | enough cells in well | 256 |
| Obox2 (oocyte specific homeobox 2) | 0.5 | enough cells in well | 276 |
| Agbl1 (ATP/GTP binding protein-like 1) | 1.92 | enough cells in well | 331 |
| Glp1r (glucagon-like peptide 1 receptor) | 0.29 | enough cells in well | 234 |
| Prrx2 (paired related homeobox 2) | -0.87 | enough cells in well | 169 |
| Gse1 (genetic suppressor element 1, coiled-coil protein) | -0.34 | enough cells in well | 175 |
| Fgf7 (fibroblast growth factor 7) | -0.12 | enough cells in well | 231 |
| Akirin1 (akirin 1) | -1.12 | enough cells in well | 122 |
| Mpp3 | – | fewer than 50 cells per well; well left out of calls | 93.1 |
| A630023P12Rik (RIKEN cDNA A630023P12 gene) | 1.67 | enough cells in well | 254 |
| Bik (BCL2-interacting killer) | 0.21 | enough cells in well | 139 |
| Anpep (alanyl aminopeptidase, membrane) | -0.69 | enough cells in well | 126 |
| Calm3 (calmodulin 3) | 0.33 | enough cells in well | 234 |
| Scyl2 (SCY1-like 2 (S. cerevisiae)) | -1.06 | enough cells in well | 131 |
| Cntd1 (cyclin N-terminal domain containing 1) | 1.74 | enough cells in well | 299 |
| Mptx1 (mucosal pentraxin 1) | -0.93 | enough cells in well | 108 |
| Trps1 (transcriptional repressor GATA binding 1) | -0.05 | enough cells in well | 185 |
| Ppm1b (protein phosphatase 1B, magnesium dependent, beta isoform) | 0.55 | enough cells in well | 261 |
| Nphp1 (nephronophthisis 1 (juvenile) homolog (human)) | 0.09 | enough cells in well | 204 |
| Mark2 (MAP/microtubule affinity regulating kinase 2) | 1.91 | enough cells in well | 311 |
| Ubqln2 (ubiquilin 2) | 3.52 (active) | enough cells in well | 254 |
| Ddx18 (DEAD box helicase 18) | -0.92 | enough cells in well | 143 |
| Pdcd10 (programmed cell death 10) | 0.78 | enough cells in well | 294 |
| Plaur (plasminogen activator, urokinase receptor) | -0.75 | enough cells in well | 195 |
| Dnase2b (deoxyribonuclease II beta) | 2.48 | enough cells in well | 310 |
| Tmsb15l (thymosin beta 15b like) | -0.43 | enough cells in well | 178 |
| Slc6a12 | -1.22 | enough cells in well | 64.8 |
| Fto (FTO alpha-ketoglutarate dependent dioxygenase) | -0.25 | enough cells in well | 249 |
| Ttpal (tocopherol (alpha) transfer protein-like) | 1.16 | enough cells in well | 240 |
| Ints1 (integrator complex subunit 1) | 0.68 | enough cells in well | 273 |

Records listed so far whose target name starts with C or c (3):
| gene | Tnf reporter robust z-score | fewer than 50 cells in well | Tnf reporter intensity, replicate 1 |
| --- | --- | --- | --- |
| Cldn3 (claudin 3) | 0.64 | enough cells in well | 257 |
| Calm3 (calmodulin 3) | 0.33 | enough cells in well | 234 |
| Cntd1 (cyclin N-terminal domain containing 1) | 1.74 | enough cells in well | 299 |
